Where a chain is given by its changes, count along the chain named. pKd: −log10 of the molar value. The exact form of at least one protein or probe is not confirmed. Tags and fusion partners may be left off the protein sequences shown.
Legend:
Assay in all cases: fluorescence polarization
[1] = biological target: T1, HSF1-WT monomer (SEC peak 3) (human) (UniProt Q00613); settings: no AZD; residues 1-529
T1 sequence (looked up): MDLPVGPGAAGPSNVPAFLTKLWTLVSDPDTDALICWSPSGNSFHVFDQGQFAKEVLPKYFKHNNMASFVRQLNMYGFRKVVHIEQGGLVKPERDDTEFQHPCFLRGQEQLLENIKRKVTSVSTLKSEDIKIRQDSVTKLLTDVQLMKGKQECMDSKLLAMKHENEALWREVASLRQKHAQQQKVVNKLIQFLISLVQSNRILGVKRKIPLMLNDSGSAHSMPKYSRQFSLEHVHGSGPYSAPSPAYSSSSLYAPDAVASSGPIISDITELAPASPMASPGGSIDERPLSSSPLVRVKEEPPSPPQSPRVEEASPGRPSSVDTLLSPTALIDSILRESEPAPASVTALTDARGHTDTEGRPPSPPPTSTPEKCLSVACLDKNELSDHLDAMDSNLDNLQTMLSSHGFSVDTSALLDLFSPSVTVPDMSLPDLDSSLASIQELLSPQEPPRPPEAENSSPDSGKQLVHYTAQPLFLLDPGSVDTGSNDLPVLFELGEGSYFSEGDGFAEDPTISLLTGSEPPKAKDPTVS

HSF1-DBD (human) = biological target: T2, HSF1-DBD (human) (UniProt Q00613); settings: no AZD; residues 1-123
T2 sequence (looked up): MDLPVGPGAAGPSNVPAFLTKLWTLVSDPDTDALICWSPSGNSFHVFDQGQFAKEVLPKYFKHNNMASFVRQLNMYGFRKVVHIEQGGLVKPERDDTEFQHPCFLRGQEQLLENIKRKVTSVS

[2] = biological target: T3, HSF1-LZ4m (HSF1-CT) M391K,L395P,L398R (human) (UniProt Q00613); settings: 10 uM AZD; residues 1-529
T3 sequence (looked up): T1 sequence (looked up) with M391K, L395P, L398R

[3] = biological target: T4, HSF1-WT trimer/oligomer (SEC peak 1) (human) (UniProt Q00613); settings: 10 uM AZD; residues 1-529
T4 sequence (looked up): T1 sequence (looked up)

HSF1-ΔTAD (human) = biological target: T5, HSF1-ΔTAD (human) (UniProt Q00613); settings: 10 uM AZD; residues 1-409
T5 sequence (looked up): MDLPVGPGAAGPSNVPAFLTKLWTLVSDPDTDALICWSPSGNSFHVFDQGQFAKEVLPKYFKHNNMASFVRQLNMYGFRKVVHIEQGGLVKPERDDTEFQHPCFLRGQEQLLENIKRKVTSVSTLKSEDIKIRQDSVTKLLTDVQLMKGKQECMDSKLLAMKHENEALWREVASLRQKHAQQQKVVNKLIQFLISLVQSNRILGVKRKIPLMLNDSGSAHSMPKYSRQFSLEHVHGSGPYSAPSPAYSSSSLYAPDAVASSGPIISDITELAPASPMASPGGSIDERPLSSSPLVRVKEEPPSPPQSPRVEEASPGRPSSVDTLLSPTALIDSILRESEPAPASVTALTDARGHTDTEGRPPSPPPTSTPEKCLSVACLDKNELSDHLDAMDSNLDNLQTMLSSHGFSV

Sequence | pKd [1] | pKd (HSF1-DBD (human)) | pKd [2] | pKd [3] | pKd (HSF1-ΔTAD (human))
CCTGGCGTAGTCCCCGCCTGGC (double strand) [mHSE (mutant HSE)] | 5.93 |  |  |  | 
CCTGGAATATTCCCGAACTGGC (double strand) [HSE (canonical three-site)] |  | 6.58 | 6.94 | 6.95 | 6.69

Source: article doi:10.1101/2025.04.28.650926 (bioRxiv, 2025)
